The list is a part of this screen's results and no random one: it is rich in T/C values a quarter to a half above the control, in often repeated tests (any T/C) and in doses without a T/C. Other doses and runs of a compound stand elsewhere. T/C: endpoint of the treated group in % of that of the vehicle group. Some entries give survivors of the animals treated and no T/C: the source files T/C as zero there, which appears to mark a toxic dose or a test without result, not a measured value. Some doses without a T/C left all or most animals alive at the check, yet need not have been tolerated: the source hardly ever lists a survival T/C far under the control, and the zero likely stands for such cases as well. Survivors were counted at the toxicity check, usually on the fifth day, unless a day is given; later deaths do not show. Schedule codes are those of the source, taken here to give the interval after Q, in days (D) or hours (H), and the number of doses after X. Where survival is the endpoint, the PubChem record calls one and a half times the control and up active, and a quarter to a half above the control has no call in these data; cut-offs in other NCI protocols can differ. Counts like (3×) say how often a value occurs here. Some T/C values carry the count of animals alive at the toxicity check (mostly the fifth day); without a count, all were alive then. Some entries hold several experiments; the results are listed from low to high.
Test system: BDF1 mice, P388 leukemia ip, median survival T/C
Assay: NCI In Vivo Anticancer Drug Screen. Data for tumor model P388 Leukemia (intraperitoneal) in B6D2F1 (BDF1) mice
Details: T/C endpoint: median survival time, higher T/C = longer survival
Outline: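 Compound-treated tumour-bearing mice were compared with vehicle-treated controls. Survival was recorded, and the value is the treated-group measurement divided by the control-group measurement (T/C).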

[1] = dose: 50.0 mg/kg/injection, schedule: Q01DX009 (ip), vehicle: Klucel (hydroxypropylcellulose) (HPC)
[2] = dose: 75.0 mg/kg/injection, schedule: Q01DX010 (ip), vehicle: water

## O=P1(N(CCCl)CCCl)NCCCO1 (stereo unspecified)
dose: 50.0 mg/kg/injection, schedule: Q01DX005 (ip), vehicle: Klucel (hydroxypropylcellulose) (HPC), evaluated on day 35
  T/C: 335 % of control
dose: 50.0 mg/kg/injection, schedule: Q01DX005 (ip), vehicle: Klucel (hydroxypropylcellulose) (HPC)
  survivor count: 3 of 3
[1]
  T/C: 93, 95, 97, 105, 120, 122, 124, 126, 132, 134, 135, 138, 153, 160, 168, 188, 191, 203, 221, 232, 233, 241, 243, 245, 249, 255, 256, 263, 264, 267, 270, 272, 288 % of control
  survivor count: 3 of 3
dose: 50.0 mg/kg/injection, schedule: Q04DX002 (ip), vehicle: Klucel (hydroxypropylcellulose) (HPC), evaluated on day 30
  T/C: 134, 151, 193, 198, 201, 202, 204, 205, 206, 214, 218 (2×), 220 (2×), 228 (2×), 238, 242, 247 (2×), 250 (2×), 252, 253, 259, 262, 263, 275, 291 (3×), 300, 305 % of control
dose: 50.0 mg/kg/injection, schedule: Q04DX002 (ip), vehicle: Klucel (hydroxypropylcellulose) (HPC), evaluated on day 35
  T/C: 241 % of control
dose: 50.0 mg/kg/injection, schedule: Q04DX003 (ip), vehicle: Klucel (hydroxypropylcellulose) (HPC), evaluated on day 30
  T/C: 86, 99, 105, 121, 127, 131 [4 of 6 alive], 139 [5 of 6 alive], 140, 150, 151, 153, 157, 163, 166, 173, 209, 222, 223 (2×), 229 (2×), 232, 238 [2 of 3 alive], 243, 247, 253, 254, 258, 270, 272, 279, 280, 287 % of control
dose: 50.0 mg/kg/injection, schedule: Q04DX003 (ip), vehicle: Klucel (hydroxypropylcellulose) (HPC), evaluated on day 35
  T/C: 111 [2 of 3 alive] and 223 % of control
dose: 50.0 mg/kg/injection, schedule: Q04DX003 (ip), vehicle: Klucel (hydroxypropylcellulose) (HPC)
  survivor count: 3 of 3
dose: 60.0 mg/kg/injection, schedule: Q01DX010 (ip), vehicle: water
  T/C: 90, 95, 104, 115, 130 % of control
dose: 67.0 mg/kg/injection, schedule: Q04DX003 (ip), vehicle: saline, evaluated on day 5
  T/C: 112, 120, 201, 208, 268, 287, 302 % of control
dose: 67.0 mg/kg/injection, schedule: Q04DX003 (ip), vehicle: saline, evaluated on day 60
  T/C: 112, 120, 201, 208, 268, 287, 302 % of control
dose: 75.0 mg/kg/injection, schedule: Q01DX001 (ip), vehicle: saline, evaluated on day 5
  T/C: 213 % of control
dose: 75.0 mg/kg/injection, schedule: Q01DX001 (ip), vehicle: saline, evaluated on day 34
  T/C: 151 % of control
dose: 75.0 mg/kg/injection, schedule: Q01DX001 (ip), vehicle: saline, evaluated on day 46
  T/C: 238 % of control
dose: 75.0 mg/kg/injection, schedule: Q01DX001 (ip), vehicle: saline, evaluated on day 60
  T/C: 213 % of control
[2]
  T/C: 90, 115, 120, 130 % of control
  survivor count: 5 of 6
dose: 80.0 mg/kg/injection, schedule: Q01DX005 (ip), vehicle: saline, evaluated on day 30
  T/C: 90 and 283 % of control
dose: 80.0 mg/kg/injection, schedule: Q01DX005 (ip), vehicle: saline, evaluated on day 35
  T/C: 343 % of control (2×)
dose: 80.0 mg/kg/injection, schedule: Q01DX005 (ip), vehicle: saline, evaluated on day 40
  T/C: 396 % of control
dose: 80.0 mg/kg/injection, schedule: Q01DX005 (ip), vehicle: saline
  survivor count: 6 of 6
dose: 80.0 mg/kg/injection, schedule: Q01DX009 (ip), vehicle: saline, evaluated on day 30
  T/C: 94 % of control
dose: 80.0 mg/kg/injection, schedule: Q01DX009 (ip), vehicle: saline, evaluated on day 35
  T/C: 235 % of control (2×)
dose: 80.0 mg/kg/injection, schedule: Q01DX009 (ip), vehicle: saline, evaluated on day 40
  T/C: 89 % of control
dose: 80.0 mg/kg/injection, schedule: Q01DX009 (ip), vehicle: saline
  survivor count: 6 of 6
dose: 100.0 mg/kg/injection, schedule: Q01DX001 (ip), vehicle: Klucel (hydroxypropylcellulose) (HPC), evaluated on day 30
  T/C: 98, 110, 165, 181, 182, 185, 195 (2×), 198, 200, 208, 221, 222, 229, 234, 237, 241, 242, 245 (2×), 252 (3×), 258, 262, 267, 271, 275, 275 % of control [5 of 6 alive]
dose: 100.0 mg/kg/injection, schedule: Q01DX001 (ip), vehicle: Klucel (hydroxypropylcellulose) (HPC), evaluated on day 35
  T/C: 267 and 281 % of control
dose: 100.0 mg/kg/injection, schedule: Q01DX001 (ip), vehicle: Klucel (hydroxypropylcellulose) (HPC)
  survivor count: 3 of 3
dose: 100.0 mg/kg/injection, schedule: Q01DX001 (ip), vehicle: saline, evaluated on day 30
  T/C: 168, 175, 200, 250, 262 % of control
dose: 100.0 mg/kg/injection, schedule: Q01DX001 (ip), vehicle: saline, evaluated on day 35
  T/C: 213 and 228 % of control
dose: 100.0 mg/kg/injection, schedule: Q01DX001 (ip), vehicle: saline, evaluated on day 40
  T/C: 217 % of control
dose: 100.0 mg/kg/injection, schedule: Q01DX001 (ip), vehicle: saline, evaluated on day 60
  T/C: 389 % of control
dose: 100.0 mg/kg/injection, schedule: Q01DX001 (ip), vehicle: saline
  survivor count: 10 of 10
dose: 100.0 mg/kg/injection, schedule: Q01DX005 (ip), vehicle: Klucel (hydroxypropylcellulose) (HPC), evaluated on day 30
  T/C: 87, 91, 92, 94, 96, 100, 112, 115, 120, 128, 140, 150, 157, 200, 211, 223, 241, 243, 250, 256, 266, 271, 272 (2×), 275 % of control
dose: 100.0 mg/kg/injection, schedule: Q01DX005 (ip), vehicle: Klucel (hydroxypropylcellulose) (HPC), evaluated on day 35
  T/C: 335 % of control

From PubChem BioAssay AID328 (DTP/NCI, 2004)
